Measured data: PubChem BioAssay AID1508597 (Cure First, 2020)
This is an unselected part of the about 2,100 reagents, under one of the conditions tested. 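Calls flag viability under 80% in either arm, not effects specific to rucaparib; the reference for percent is not stated.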 A number with no mark means an inactive call. Some reagents were tested in more than one well and are listed for each. Not stated in the record: the 100% reference.

- Aim: 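Survival screen with siRNA in ovarian cancer cells derived from patients, with or without rucaparib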 (primary screen)
- System: human ovarian carcinoma lines grown from tumours: OCI-P5x (papillary serous) and OCI-C5x (clear cell)
- Reagent: siRNA pool against human genes, 1.25 pmol siRNA per well
- Timing: 72 h or 96 h, depending on the cell culture
- Challenge: rucaparib 20 µM (about IC30) or vehicle, present until read-out
- Rucaparib or vehicle: Rucaparib
- Cell line: OCI-P5x (serous)
- Detection: 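ATP luminescence measured at 72 or 96 h according to the culture, then normalised and expressed as percent viability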
- Direction: viability, normalised: higher = more viable cells remaining
- Rule for the call: 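a well counts as a hit if its normalised viability is under 80 percent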
- Meaning of the calls: active = viability under 80%; inactive = viability 80% or more

| gene | technical replicate | viability, normalised (%) |
| --- | --- | --- |
| OXSR1 | 1 | 81.2 |
| OXSR1 | 2 | 82.1 |
| OXSR1 | 3 | 79.3 (active) |
| SLC16A9 | 1 | 51.1 (active) |
| SLC16A9 | 2 | 48.1 (active) |
| SLC16A9 | 3 | 52.5 (active) |
| BNIP3 | 1 | 46.3 (active) |
| BNIP3 | 2 | 49.1 (active) |
| BNIP3 | 3 | 57.4 (active) |
| TAF1L | 1 | 85.4 |
| TAF1L | 1 | 65.2 (active) |
| TAF1L | 2 | 56.1 (active) |
| TAF1L | 2 | 79.2 (active) |
| TAF1L | 3 | 79.9 (active) |
| TAF1L | 3 | 55.1 (active) |
| TNRC6A | 1 | 62.8 (active) |
| TNRC6A | 2 | 66 (active) |
| TNRC6A | 3 | 75 (active) |
| CDK8 | 1 | 105 |
| CDK8 | 2 | 92.9 |
| CDK8 | 3 | 103 |
| NADK | 1 | 68 (active) |
| NADK | 2 | 66.7 (active) |
| NADK | 3 | 61.3 (active) |

No new results follow: entries from further up.
| gene | technical replicate | viability, normalised (%) |
| --- | --- | --- |
| SLC16A9 | 1 | 51.1 (active) |
| SLC16A9 | 2 | 48.1 (active) |
